Measured data: PubChem BioAssay AID720505 (Drosophila RNAi Screening Center, 2013)
In all, the deposit lists about 20,000 reagents; shown is a random part of those with a known target gene and a result. Over the whole deposit, about 2,100 (10%) got an active call. 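Raw plate signals without normalisation; calls rest on control-based scores that were not deposited; replicate 2 separates called from uncalled poorly.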 Not stated in the record: the amount of reagent, the time to read-out.

Aim: 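Genes needed for store-operated calcium entry in fly cells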 (primary screen)
System: Drosophila S2R+ cells
Knock-down reagent: long dsRNA against Drosophila genes
Conditions: thapsigargin (2 µM) in calcium-free buffer to empty internal stores, then 2 mM calcium added back
Detection: 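Stores emptied by 2 µM thapsigargin without calcium, then 2 mM calcium re-added; fluo-4 fluorescence followed by FLIPR in 384-well plates, per-well averaged endpoint, raw; two screen passes, some wells retested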
Scale: calcium signal and retest calcium signal: higher = more calcium entry after store depletion
Rule for the call: 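Knock-downs counted as hits when calcium entry dropped relative to STIM1 positive and Rho1 negative controls present on each plate; roughly 1500 genes called, with reductions of differing size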
Calls: active = called as lowering calcium entry; inactive = not called

Knock-down of CG15514 (GeneID 43531) [DRSC15053] came out at: calcium signal, replicate 1 = 123; calcium signal, replicate 2 = 104; inactive.
muskelin (GeneID 36386) [DRSC07273] scored calcium signal, replicate 1 = 67.4; calcium signal, replicate 2 = 193; inactive.
ND-B17 (GeneID 34925) [DRSC01981] gave calcium signal, replicate 1 = 115; calcium signal, replicate 2 = 90.6; inactive.
With knock-down of CG13996 (GeneID 33842) [DRSC02328] the results were calcium signal, replicate 1 = 157; calcium signal, replicate 2 = 97.6; inactive.
For Sln (GeneID 36263) [DRSC07133] the deposit lists calcium signal, replicate 1 = 105; calcium signal, replicate 2 = 162; inactive.
With knock-down of CG11679 (GeneID 32515) [DRSC19415], the record shows calcium signal, replicate 1 = 131; calcium signal, replicate 2 = 116; inactive.
With knock-down of CG31076 (GeneID 318582) [DRSC16017] the results were calcium signal, replicate 1 = 178; calcium signal, replicate 2 = 123; inactive.
qkr58E-1 (GeneID 37561) [DRSC04709] scored calcium signal, replicate 1 = 175; calcium signal, replicate 2 = 93.9; inactive.
Hex-A (GeneID 45875) [DRSC18259] scored calcium signal, replicate 1 = 64.5; calcium signal, replicate 2 = 67.9; active.

2 neighbouring records from above, quoted:
muskelin (GeneID 36386) [DRSC07273] | calcium signal, replicate 1 = 67.4; calcium signal, replicate 2 = 193; call = inactive
ND-B17 (GeneID 34925) [DRSC01981] | calcium signal, replicate 1 = 115; calcium signal, replicate 2 = 90.6; call = inactive

Further entries follow:
Silencing of Rgk3 (GeneID 5740446) [DRSC04250] came out at: calcium signal, replicate 1 = 81.4; calcium signal, replicate 2 = 99.8; retest calcium signal, replicate 1 = 133; retest calcium signal, replicate 2 = 138; inactive.
Silencing of Rgk3 (GeneID 5740446) [DRSC04251] gave: calcium signal, replicate 1 = 93.3; calcium signal, replicate 2 = 95.2; inactive.
Against Rgk3 (GeneID 5740446) [DRSC04254], the entry reads calcium signal, replicate 1 = 116; calcium signal, replicate 2 = 107; inactive.
For Rgk3 (GeneID 5740446) [DRSC04255], the entry reads calcium signal, replicate 1 = 121; calcium signal, replicate 2 = 114; inactive.
CG42750 (GeneID 35090) [DRSC02458] showed calcium signal, replicate 1 = 68.7; calcium signal, replicate 2 = 49.8; retest calcium signal, replicate 1 = 104; retest calcium signal, replicate 2 = 86.6; active.
After knock-down of CG42750 (GeneID 35090) [DRSC03019], the screen gave calcium signal, replicate 1 = 109; calcium signal, replicate 2 = 98; inactive.
Depletion of CG42750 (GeneID 35090) [DRSC03024] came out at: calcium signal, replicate 1 = 67.4; calcium signal, replicate 2 = 104; active.
CG42750 (GeneID 35090) [DRSC21414] gave calcium signal, replicate 1 = 164; calcium signal, replicate 2 = 117; inactive.
CG42750 (GeneID 35090) [DRSC23218] scored calcium signal, replicate 1 = 144; calcium signal, replicate 2 = 156; inactive.
Depletion of CG31897 (GeneID 319011) [DRSC01020] resulted in: calcium signal, replicate 1 = 186; calcium signal, replicate 2 = 85; inactive.
Against Ir52c (GeneID 246630) [DRSC21801] the deposit lists calcium signal, replicate 1 = 160; calcium signal, replicate 2 = 94.8; inactive.
Vps33B (GeneID 43077) [DRSC15722] gave calcium signal, replicate 1 = 73.9; calcium signal, replicate 2 = 106; inactive.
Against Atxn7 (GeneID 33423) [DRSC00726], the values are calcium signal, replicate 1 = 66.3; calcium signal, replicate 2 = 151; active.
After knock-down of Atxn7 (GeneID 33423) [DRSC23138], the record shows calcium signal, replicate 1 = 102; calcium signal, replicate 2 = 140; inactive.
Es2 (GeneID 31780) [DRSC18663] showed calcium signal, replicate 1 = 120; calcium signal, replicate 2 = 89.6; inactive.
Gfat1 (GeneID 3354921) [DRSC21219] gave calcium signal, replicate 1 = 148; calcium signal, replicate 2 = 101; inactive.
For eIF2Bdelta (GeneID 37706) [DRSC04058], the entry reads calcium signal, replicate 1 = 182; calcium signal, replicate 2 = 83.6; inactive.
Pos (GeneID 43762) [DRSC15415] showed calcium signal, replicate 1 = 84.8; calcium signal, replicate 2 = 116; inactive.
For CG31638 (GeneID 33910) [DRSC02269], the values are calcium signal, replicate 1 = 97.8; calcium signal, replicate 2 = 100; inactive.
CG31638 (GeneID 33910) [DRSC03259] scored calcium signal, replicate 1 = 110; calcium signal, replicate 2 = 113; inactive.
